In PubChem BioAssay (NCATS):
The inconclusive results got no clear call from the source; some entries with a clear call stand among them for comparison. For some assays here: Potencies of inconclusive entries are doubtful fits and often do not repeat. For some assays here: A note “side channel” means that the fit belongs to a control or component signal, not to the main read-out. The source made the active and inactive calls. Unless noted, calls follow the shape of the dose curve; as a rule, active = well fitted curve in the direction sought with a large enough effect; inconclusive = small, poorly fitted or top-dose-only effect, or another doubt; inactive = no such curve, though single readings can be large; an effect the other way counts as inactive or inconclusive.

By UniProt entry, the sequences of proteins in these tests, tags left out. Where a name states a change or a piece, a line headed by the entry shows the natural chain unless it says otherwise.
UniProt P08684, whole entry, looked up: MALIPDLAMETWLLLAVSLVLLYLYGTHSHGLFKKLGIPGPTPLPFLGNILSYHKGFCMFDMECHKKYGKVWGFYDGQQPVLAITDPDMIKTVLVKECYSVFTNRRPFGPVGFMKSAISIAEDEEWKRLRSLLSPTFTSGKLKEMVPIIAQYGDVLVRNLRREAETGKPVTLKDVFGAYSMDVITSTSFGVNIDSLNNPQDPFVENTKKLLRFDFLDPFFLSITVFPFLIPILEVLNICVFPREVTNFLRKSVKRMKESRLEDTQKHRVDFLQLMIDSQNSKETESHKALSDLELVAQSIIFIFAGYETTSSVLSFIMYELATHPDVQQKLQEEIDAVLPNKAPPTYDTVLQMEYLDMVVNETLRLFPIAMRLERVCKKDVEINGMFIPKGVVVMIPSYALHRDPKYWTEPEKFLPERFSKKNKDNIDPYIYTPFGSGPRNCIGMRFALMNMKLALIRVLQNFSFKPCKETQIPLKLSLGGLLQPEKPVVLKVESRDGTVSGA
UniProt O75469: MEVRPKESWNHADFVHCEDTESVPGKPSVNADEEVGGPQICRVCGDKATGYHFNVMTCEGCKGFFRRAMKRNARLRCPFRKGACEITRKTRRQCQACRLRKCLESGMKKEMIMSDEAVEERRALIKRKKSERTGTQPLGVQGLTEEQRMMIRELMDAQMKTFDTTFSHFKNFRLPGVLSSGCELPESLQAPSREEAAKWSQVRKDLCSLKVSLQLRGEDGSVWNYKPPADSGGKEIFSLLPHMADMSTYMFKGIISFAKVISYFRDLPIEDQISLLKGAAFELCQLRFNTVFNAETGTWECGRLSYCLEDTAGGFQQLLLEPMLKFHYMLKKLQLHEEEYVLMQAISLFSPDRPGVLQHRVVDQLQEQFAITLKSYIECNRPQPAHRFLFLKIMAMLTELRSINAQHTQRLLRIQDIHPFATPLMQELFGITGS
UniProt P03372, whole entry, looked up: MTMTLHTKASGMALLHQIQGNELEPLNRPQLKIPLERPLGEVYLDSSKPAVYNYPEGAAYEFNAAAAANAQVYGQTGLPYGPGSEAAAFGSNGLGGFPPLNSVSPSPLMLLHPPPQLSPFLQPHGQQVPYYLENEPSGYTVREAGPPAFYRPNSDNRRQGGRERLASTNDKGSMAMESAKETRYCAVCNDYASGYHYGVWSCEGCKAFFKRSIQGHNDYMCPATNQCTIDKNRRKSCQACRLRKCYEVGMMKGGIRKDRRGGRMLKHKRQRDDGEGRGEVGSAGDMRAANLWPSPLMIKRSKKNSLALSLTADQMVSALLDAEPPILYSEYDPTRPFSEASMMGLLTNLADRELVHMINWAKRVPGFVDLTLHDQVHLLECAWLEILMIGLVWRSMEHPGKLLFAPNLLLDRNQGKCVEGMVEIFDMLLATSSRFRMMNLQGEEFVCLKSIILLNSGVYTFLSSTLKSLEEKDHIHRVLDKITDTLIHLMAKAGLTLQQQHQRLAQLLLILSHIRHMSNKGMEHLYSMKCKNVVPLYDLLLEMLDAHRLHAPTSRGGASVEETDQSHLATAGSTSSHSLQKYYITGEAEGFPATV
UniProt P10275: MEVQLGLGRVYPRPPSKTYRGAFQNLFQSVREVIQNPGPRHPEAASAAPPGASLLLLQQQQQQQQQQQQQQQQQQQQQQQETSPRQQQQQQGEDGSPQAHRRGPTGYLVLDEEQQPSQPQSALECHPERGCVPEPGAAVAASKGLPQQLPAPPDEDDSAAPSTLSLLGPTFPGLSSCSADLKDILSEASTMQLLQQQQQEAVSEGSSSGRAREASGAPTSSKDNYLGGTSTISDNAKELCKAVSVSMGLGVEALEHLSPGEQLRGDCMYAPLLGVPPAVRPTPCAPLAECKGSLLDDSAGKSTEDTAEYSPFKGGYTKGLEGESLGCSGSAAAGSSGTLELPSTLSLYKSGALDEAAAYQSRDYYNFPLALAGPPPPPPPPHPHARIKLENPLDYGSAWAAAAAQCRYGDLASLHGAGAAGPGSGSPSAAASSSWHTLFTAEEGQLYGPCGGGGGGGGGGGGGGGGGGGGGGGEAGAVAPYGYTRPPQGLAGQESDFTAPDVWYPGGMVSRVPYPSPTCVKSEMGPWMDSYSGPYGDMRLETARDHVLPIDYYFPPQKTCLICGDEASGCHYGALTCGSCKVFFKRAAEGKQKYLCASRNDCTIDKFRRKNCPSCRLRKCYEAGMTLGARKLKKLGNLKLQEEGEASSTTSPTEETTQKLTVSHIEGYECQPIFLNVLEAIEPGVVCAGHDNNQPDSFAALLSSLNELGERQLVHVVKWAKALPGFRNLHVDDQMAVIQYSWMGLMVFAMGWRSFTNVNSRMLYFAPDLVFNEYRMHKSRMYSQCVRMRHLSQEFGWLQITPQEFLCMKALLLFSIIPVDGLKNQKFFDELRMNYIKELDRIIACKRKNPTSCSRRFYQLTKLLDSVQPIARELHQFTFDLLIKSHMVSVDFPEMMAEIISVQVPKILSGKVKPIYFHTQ
UniProt P04150: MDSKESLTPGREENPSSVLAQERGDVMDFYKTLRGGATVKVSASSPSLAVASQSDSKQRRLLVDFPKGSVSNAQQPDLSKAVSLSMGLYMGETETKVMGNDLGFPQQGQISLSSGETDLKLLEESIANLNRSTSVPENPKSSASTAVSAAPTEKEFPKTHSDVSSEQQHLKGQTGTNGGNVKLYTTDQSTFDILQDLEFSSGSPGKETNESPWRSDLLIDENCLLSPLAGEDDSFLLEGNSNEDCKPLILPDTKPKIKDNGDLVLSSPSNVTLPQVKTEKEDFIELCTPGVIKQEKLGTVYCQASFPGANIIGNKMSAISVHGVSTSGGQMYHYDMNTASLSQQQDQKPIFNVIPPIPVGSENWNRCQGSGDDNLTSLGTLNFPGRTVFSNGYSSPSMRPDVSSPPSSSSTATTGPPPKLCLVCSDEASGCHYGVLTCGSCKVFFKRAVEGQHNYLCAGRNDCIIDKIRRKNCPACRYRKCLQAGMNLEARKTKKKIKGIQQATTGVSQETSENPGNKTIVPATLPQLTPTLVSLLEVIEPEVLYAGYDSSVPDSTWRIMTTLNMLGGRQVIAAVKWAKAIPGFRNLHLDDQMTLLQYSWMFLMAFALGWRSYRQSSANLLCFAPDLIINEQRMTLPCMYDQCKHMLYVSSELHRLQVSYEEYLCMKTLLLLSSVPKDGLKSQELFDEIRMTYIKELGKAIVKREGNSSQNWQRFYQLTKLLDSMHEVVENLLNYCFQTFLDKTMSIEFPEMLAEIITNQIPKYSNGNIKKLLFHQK
UniProt Q03181: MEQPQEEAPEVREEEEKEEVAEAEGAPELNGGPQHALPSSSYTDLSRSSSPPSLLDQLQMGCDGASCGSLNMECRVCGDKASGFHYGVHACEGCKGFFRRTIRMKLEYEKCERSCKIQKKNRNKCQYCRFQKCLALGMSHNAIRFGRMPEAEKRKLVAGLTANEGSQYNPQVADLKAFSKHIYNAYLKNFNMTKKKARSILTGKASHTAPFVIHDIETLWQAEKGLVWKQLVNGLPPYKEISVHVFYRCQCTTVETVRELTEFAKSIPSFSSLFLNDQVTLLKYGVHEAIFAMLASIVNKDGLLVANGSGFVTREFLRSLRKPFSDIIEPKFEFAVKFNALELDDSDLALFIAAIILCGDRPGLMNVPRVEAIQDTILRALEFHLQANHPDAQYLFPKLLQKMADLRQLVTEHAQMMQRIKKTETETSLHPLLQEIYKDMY

Legend:
[1] = Quantitative High-Throughput drug screen in 47 multiple myeloma cell lines against the NCATS MIPE library collection: MM1S_ATCC cell viability assay (AID 1918980); conditions: MM1S myeloma viability, CellTiter-Glo ATP luminescence, 48 h; series mostly up to 45.8 µM; also: nearly all actives have a fitted effect of over 45% in size
Summary of the method: (§1)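 Viability after 48 h drug exposure was measured as ATP-dependent luminescence. Cells, 500 per well, sat at 37 °C under 5% CO2; DMSO wells set 100%, media-only wells 0%.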

[2] = Quantitative High-Throughput drug screen in 47 multiple myeloma cell lines against the NCATS MIPE library collection: MM1R_ATCC cell viability assay (AID 1918981); conditions: MM1R multiple myeloma cells, CellTiter-Glo viability, 48 h; series mostly up to 45.8 µM; also: nearly all actives have a fitted effect of over 35% in size
Summary of the method: as §1

[3] = Quantitative High-Throughput drug screen in 47 multiple myeloma cell lines against the NCATS MIPE library collection: KMS34_JCRB cell viability assay (AID 1918985); conditions: KMS34 myeloma viability, CellTiter-Glo ATP luminescence, 48 h; series mostly up to 45.8 µM; also: nearly all actives have a fitted effect of over 40% in size
Summary of the method: as §1

[4] = Quantitative High-Throughput drug screen in 47 multiple myeloma cell lines against the NCATS MIPE library collection: OPM1_PLB cell viability assay (AID 1918989); conditions: CellTiter-Glo, 48 h; series mostly up to 45.8 µM; also: nearly all actives have a fitted effect of over 40% in size
Summary of the method: as §1

[5] = Quantitative High-Throughput drug screen in 47 multiple myeloma cell lines against the NCATS MIPE library collection: SKMM1_PLB cell viability assay (AID 1919863); conditions: SKMM1 myeloma viability, CellTiter-Glo ATP, 48 h; viability: hits give low values; also: potency is read from the fitted curve at half-maximal effect; nearly all actives have a fitted effect of over 35% in size
Summary of the method: as §1

[6] = target: Cytochrome P450 3A4 (Homo sapiens) (UniProt P08684); experiment: qHTS for inhibitors of CYP3A4 against the NCATS DSHEA and TCM libraries (AID 1919971); conditions: recombinant CYP3A4 enzyme activity, luminescence qHTS; series mostly up to 34.1 µM; also: potency is read from the fitted curve at half-maximal effect
Summary of the method: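 Light output from converted D-luciferin reports remaining CYP activity. Compounds preincubate with enzyme and substrate for 15 min; NADPH regeneration (1x final) runs the reaction for 30-45 min.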

[7] = KB-3-1 P-gp reporter qHTS against the NCATS DSHEA and TCM libraries (AID 1919975); conditions: KB-3-1 parental cells, CellTiter-Glo luminescence viability, 72 h; also: potency is read from the fitted curve at half-maximal effect
Summary of the method: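 Cell viability qHTS: 500 KB-3-1 cells/well, substances in titration, ~72 h, 37C; luminescent CellTiter-Glo read.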

[8] = KB-8-5-11 P-gp reporter qHTS against the NCATS DSHEA and TCM libraries (AID 1919977); conditions: KB-8-5-11 cells; also: potency is read from the fitted curve at half-maximal effect
Summary of the method: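 Viability of drug-resistant KB-8-5-11 cells is measured by CellTiter-Glo luminescence following roughly 72 h treatment at 37C. Substances were titrated, with bortezomib as intraplate control.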

[9] = target: Nuclear receptor subfamily 1 group I member 2 (Homo sapiens) (UniProt O75469); experiment: Dual reporter qHTS for agonist of Pregnane X Receptor (hPXR) against the NCATS DSHEA and TCM libraries: Luminescence readout (AID 1920059); conditions: hPXR dual reporter cells, luciferase luminescence agonist; series mostly up to 40 µM; also: potency is read from the fitted curve at half-maximal effect
Summary of the method: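 hPXR-Luc HepG2 cells, 2000/well in 5% charcoal-stripped FBS medium, attached 5 h, then exposed 24 h at 37C to compounds. Viability by CellTiter-Fluor, then luciferase luminescence with ONE-Glo.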

[10] = target: Nuclear receptor subfamily 1 group I member 2 (Homo sapiens) (UniProt O75469); experiment: Dual reporter qHTS for antagonist of Pregnane X Receptor (hPXR) against the NCATS DSHEA and TCM libraries: Luminescence Readout (AID 1920060); conditions: hPXR dual reporter cells, luciferase luminescence, antagonist mode
Summary of the method: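 HepG2 hPXR-Luc, 2000 cells/well, charcoal-stripped FBS medium; 5 h attach; RIF 2 uM final; 24 h 37C/5% CO2; CellTiter-Fluor 1 h, fluor 405/540; ONE-Glo 30 min RT, lum.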

[11] = target: Estrogen receptor (Homo sapiens) (UniProt P03372); experiment: qHTS assay for small molecule antagonists of estrogen receptor alpha signaling (AID 588513; active = well fitted curve in the direction sought with a large enough effect in the signal ratio, with a control signal flat, not every such curve was filed as active; inconclusive = small, poorly fitted or top-dose-only effect, or effect the other way, or a change in a side signal; inactive = no such curve, though single readings can be large or run the other way; the % refers to the signal ratio; also: potency is read from the fitted curve at half-maximal effect); conditions: ER-alpha-UAS-bla HEK293, beta-lactamase ratio, antagonist mode; activity, negative = inhibition: at 76.9 µM (top of the series) unless noted
Summary of the method: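 Antagonist-mode qHTS in ER-alpha-UAS-bla HEK 293 cells: compound titration, 0.5nM estradiol for 18 h, CCF4 fluorescence, Hill-derived IC50.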

[12] = target: Estrogen receptor (Homo sapiens) (UniProt P03372); experiment: qHTS assay for small molecule agonists of estrogen receptor alpha signaling (AID 588514; calls by dose curve; also: potency is read from the fitted curve at half-maximal effect; nearly all actives have a fitted effect of over 70% in size); conditions: ER-alpha-UAS-bla HEK293, beta-lactamase ratio, 18 h; activation: at 76.8 µM (top of the series), percent of full estradiol response, vehicle zero
Summary of the method: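 Reporter-gene assay. […] controls beta-lactamase in HEK 293 GripTite cells; after 18 hrs with compound, CCF4 substrate is added for 2 hrs and fluorescence is read.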

[13] = target: Androgen receptor (Homo sapiens) (UniProt P10275); experiment: qHTS assay for small molecule agonists of androgen receptor signaling (AID 588515; active = well fitted curve in the direction sought with a large enough effect in the signal ratio, with a control signal flat; inconclusive = small, poorly fitted or top-dose-only effect, or effect the other way, or a change in a side signal; inactive = no such curve, though single readings can be large or run the other way; the % refers to the signal ratio; also: % is scaled to controls: 0 for no effect and ±100 for the full control effect); conditions: AR-UAS-bla HEK293, beta-lactamase ratio, agonist 16 h; activation: hits give high values
Summary of the method: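 EC50 and efficacy came from Hill fits of titrations (up to 92 uM) normalized to 30 nM R1881 as 100% and DMSO as 0%. Compound exposure was 16 h at 37 C on AR-UAS-bla HEK293 cells, with a 405/460/530 nm CCF4 fluorescence read.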

[14] = target: Glucocorticoid receptor (Homo sapiens) (UniProt P04150); experiment: qHTS assay for small molecule antagonists of glucocorticoid receptor signaling (AID 588533; active = well fitted inhibition curve with a large enough effect in the signal ratio, with a control signal flat, not every such curve was filed as active; inconclusive = small, poorly fitted or top-dose-only effect, or effect the other way, or a change in a side signal; the % refers to the signal ratio;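 also: cells stimulated with 2 nM dexamethasone as agonist; % is scaled to controls: 0 for no effect and ±100 for the full control effect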); conditions: HeLa MMTV-bla, GRE beta-lactamase ratio, antagonist mode, 18 h; activity change, negative = inhibition: at 76.8 µM (top of the series)
[15] = target: Peroxisome proliferator-activated receptor delta (Homo sapiens) (UniProt Q03181); experiment: qHTS assay for small molecule agonists of peroxisome proliferator-activated receptor delta signaling (AID 588534; calls by dose curve; also: potency is read from the fitted curve at half-maximal effect); conditions: HEK293T PPARdelta-UAS-bla, beta-lactamase ratio, 18 h; activation: at 76.7 µM (top of the series)
Summary of the method: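 Reporter cells were plated and held 5 hrs at 37 C before compounds were added. After 18 hrs at 37 C, CCF4 dye was loaded for 2 hrs at RT and fluorescence measured.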

[16] = target: Peroxisome proliferator-activated receptor delta (Homo sapiens) (UniProt Q03181); experiment: qHTS assay for small molecule antagonists of peroxisome proliferator-activated receptor delta signaling (AID 588535; active = well fitted inhibition curve with a large enough effect in the signal ratio, with a control signal flat, not every such curve was filed as active; inconclusive = small, poorly fitted or top-dose-only effect, or effect the other way, or a change in a side signal; inactive = no such curve, though single readings can be large or run the other way; the % refers to the signal ratio; also: potency is read from the fitted curve at half-maximal effect); conditions: HEK293T PPARd-UAS-bla, beta-lactamase FRET ratio, 18 h; activity change, negative = inhibition: at 76.7 µM (top of the series)
Summary of the method: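 Cells were seeded at 4000 per well in assay medium containing 2% charcoal/dextran FBS and held 5 hrs at 37 C. Compounds were then added for 18 hrs. CCF4 substrate was applied for 2 hrs at room temperature before fluorescence reading.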

[17] = target: Peroxisome proliferator-activated receptor gamma (Homo sapiens) (UniProt P37231); experiment: qHTS assay for small molecule agonists of peroxisome proliferator-activated receptor gamma signaling (AID 588536; active = well fitted curve in the direction sought with a large enough effect in the signal ratio, with a control signal flat, not every such curve was filed as active; inconclusive = small, poorly fitted or top-dose-only effect, or effect the other way, or a change in a side signal; inactive = no such curve, though single readings can be large or run the other way; the % refers to the signal ratio; also: potency is read from the fitted curve at half-maximal effect); conditions: HEK293 PPARg-UAS-bla, beta-lactamase ratio, 16 h; activation: at 76.7 µM (top of the series), percent of rosiglitazone response, DMSO as zero
Summary of the method: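 Test agents, titrated, stimulated HEK293 UAS-bla cells overnight (16 h, 37 C). Substrate CCF4 was then added for two hours at room temperature before fluorescence reading.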

[18] = target: Vitamin D3 receptor (Homo sapiens) (UniProt P11473); experiment: qHTS assay for small molecule antagonists of vitamin D receptor signaling (AID 588541; calls by dose curve; also: potency is read from the fitted curve at half-maximal effect); conditions: HEK293T VDR-UAS-bla, beta-lactamase ratio, antagonist mode; activity change, negative = inhibition: at 76.7 µM (top of the series) unless noted
[19] = target: Vitamin D3 receptor (Homo sapiens) (UniProt P11473); experiment: qHTS assay for small molecule agonists of vitamin D receptor signaling (AID 588543; calls by dose curve; also: potency is read from the fitted curve at half-maximal effect); conditions: HEK293T VDR-UAS-bla, beta-lactamase ratio, 16 h; activation: at 76.8 µM (top of the series)
Summary of the method: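 Measured: β-lactamase reporter activity (CCF4, 405 nm excitation, 460/530 nm emission) in HEK293T VDR-UAS-bla cells after 16 h compound exposure at 37 °C. Normalization against 50 nM 1α,25-dihydroxyvitamin D3 and DMSO; Hill-fit EC50.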

[20] = target: Rap guanine nucleotide exchange factor 3 (Homo sapiens) (UniProt O95398); experiment: Counterscreen qHTS for agonist of cAMP-regulated guanine nucleotide exchange factor 3 (EPAC1) (AID 1645889); conditions: EPAC1 Rap1B-BODIPY-GDP exchange, fluorescence; series mostly up to 154 µM; also: % of control where 0% means no effect; nearly all actives have a fitted effect of over 40% in size
Summary of the method: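 Rap1B–BODIPY-GDP (250 nM) with 50 uM GDP; compounds pin-transferred to 9.74 nM–152 uM final (activator) or from 7.32 nM upwards (inhibitor). Fluorescence Ex/Em 480/540 nm read at 5 and 30 min, then after adding cAMP or buffer, at room temperature.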

| Compound | Potency [1] | Potency [2] | Potency [3] | Potency [4] | Potency [5] | Potency [6] | Potency [7] | Potency [8] | Potency [9] | Potency [10] | Potency [11] | Potency [12] | activation [13] | Potency [14] | Potency [15] | Potency [16] | Potency [17] | Potency [18] | Potency [19] | Potency [20] |
| --- | --- | --- | --- | --- | --- | --- | --- | --- | --- | --- | --- | --- | --- | --- | --- | --- | --- | --- | --- | --- |
| C=C(C)[C@@H]1CC[C@]2(C(=O)O)CC[C@]3(C)[C@H](CC[C@@H]4[C@@]5(C)CC[C@H](O)C(C)(C)[C@@H]5CC[C@]43C)[C@@H]12 | inactive | inactive | inactive | inactive | active: 0.935 µM | inconclusive: 4.47 µM [inhibitor, partial curve, poor fit] | inconclusive: 15.8 µM [inhibitor, partial curve, poor fit] | inconclusive: 25.1 µM [inhibitor, partial curve, poor fit] | inconclusive: 14.1 µM [activator, full curve] | inconclusive: 31.6 µM [inhibitor, partial curve, poor fit] |  |  |  |  |  |  |  |  |  |  |
| CCCc1c(OCCCOc2ccc(OCC(=O)O)cc2)ccc(C(C)=O)c1O |  |  |  |  |  |  |  |  |  |  | inconclusive: 35.5 µM [fluorescent, side channel, partial curve] | inconclusive: 28.2 µM [fluorescent, side channel, single point] | inactive: -2.09% | inactive | inconclusive: 44.7 µM [fluorescent, side channel, single point] | inconclusive: 39.8 µM [side channel, rising, partial curve, poor fit] | inconclusive: 0.282 µM [side channel, falling, full curve] | inconclusive: 12.6 µM [activator, full curve, poor fit] | inconclusive: 39.8 µM [side channel, rising, partial curve, poor fit] | inactive |
